Source: paper doi:10.1101/2024.10.28.620578
Results are given in words; binding and its absence hold for the method and conditions named. Binding seen in cells or lysates may run through a third protein. Some entries that bind do so weakly or less than the wild type. Tags and fused reporters may be left off the sequences shown.

The chains behind the UniProt entries cited, without tags or fusion partners.
UniProt P38811: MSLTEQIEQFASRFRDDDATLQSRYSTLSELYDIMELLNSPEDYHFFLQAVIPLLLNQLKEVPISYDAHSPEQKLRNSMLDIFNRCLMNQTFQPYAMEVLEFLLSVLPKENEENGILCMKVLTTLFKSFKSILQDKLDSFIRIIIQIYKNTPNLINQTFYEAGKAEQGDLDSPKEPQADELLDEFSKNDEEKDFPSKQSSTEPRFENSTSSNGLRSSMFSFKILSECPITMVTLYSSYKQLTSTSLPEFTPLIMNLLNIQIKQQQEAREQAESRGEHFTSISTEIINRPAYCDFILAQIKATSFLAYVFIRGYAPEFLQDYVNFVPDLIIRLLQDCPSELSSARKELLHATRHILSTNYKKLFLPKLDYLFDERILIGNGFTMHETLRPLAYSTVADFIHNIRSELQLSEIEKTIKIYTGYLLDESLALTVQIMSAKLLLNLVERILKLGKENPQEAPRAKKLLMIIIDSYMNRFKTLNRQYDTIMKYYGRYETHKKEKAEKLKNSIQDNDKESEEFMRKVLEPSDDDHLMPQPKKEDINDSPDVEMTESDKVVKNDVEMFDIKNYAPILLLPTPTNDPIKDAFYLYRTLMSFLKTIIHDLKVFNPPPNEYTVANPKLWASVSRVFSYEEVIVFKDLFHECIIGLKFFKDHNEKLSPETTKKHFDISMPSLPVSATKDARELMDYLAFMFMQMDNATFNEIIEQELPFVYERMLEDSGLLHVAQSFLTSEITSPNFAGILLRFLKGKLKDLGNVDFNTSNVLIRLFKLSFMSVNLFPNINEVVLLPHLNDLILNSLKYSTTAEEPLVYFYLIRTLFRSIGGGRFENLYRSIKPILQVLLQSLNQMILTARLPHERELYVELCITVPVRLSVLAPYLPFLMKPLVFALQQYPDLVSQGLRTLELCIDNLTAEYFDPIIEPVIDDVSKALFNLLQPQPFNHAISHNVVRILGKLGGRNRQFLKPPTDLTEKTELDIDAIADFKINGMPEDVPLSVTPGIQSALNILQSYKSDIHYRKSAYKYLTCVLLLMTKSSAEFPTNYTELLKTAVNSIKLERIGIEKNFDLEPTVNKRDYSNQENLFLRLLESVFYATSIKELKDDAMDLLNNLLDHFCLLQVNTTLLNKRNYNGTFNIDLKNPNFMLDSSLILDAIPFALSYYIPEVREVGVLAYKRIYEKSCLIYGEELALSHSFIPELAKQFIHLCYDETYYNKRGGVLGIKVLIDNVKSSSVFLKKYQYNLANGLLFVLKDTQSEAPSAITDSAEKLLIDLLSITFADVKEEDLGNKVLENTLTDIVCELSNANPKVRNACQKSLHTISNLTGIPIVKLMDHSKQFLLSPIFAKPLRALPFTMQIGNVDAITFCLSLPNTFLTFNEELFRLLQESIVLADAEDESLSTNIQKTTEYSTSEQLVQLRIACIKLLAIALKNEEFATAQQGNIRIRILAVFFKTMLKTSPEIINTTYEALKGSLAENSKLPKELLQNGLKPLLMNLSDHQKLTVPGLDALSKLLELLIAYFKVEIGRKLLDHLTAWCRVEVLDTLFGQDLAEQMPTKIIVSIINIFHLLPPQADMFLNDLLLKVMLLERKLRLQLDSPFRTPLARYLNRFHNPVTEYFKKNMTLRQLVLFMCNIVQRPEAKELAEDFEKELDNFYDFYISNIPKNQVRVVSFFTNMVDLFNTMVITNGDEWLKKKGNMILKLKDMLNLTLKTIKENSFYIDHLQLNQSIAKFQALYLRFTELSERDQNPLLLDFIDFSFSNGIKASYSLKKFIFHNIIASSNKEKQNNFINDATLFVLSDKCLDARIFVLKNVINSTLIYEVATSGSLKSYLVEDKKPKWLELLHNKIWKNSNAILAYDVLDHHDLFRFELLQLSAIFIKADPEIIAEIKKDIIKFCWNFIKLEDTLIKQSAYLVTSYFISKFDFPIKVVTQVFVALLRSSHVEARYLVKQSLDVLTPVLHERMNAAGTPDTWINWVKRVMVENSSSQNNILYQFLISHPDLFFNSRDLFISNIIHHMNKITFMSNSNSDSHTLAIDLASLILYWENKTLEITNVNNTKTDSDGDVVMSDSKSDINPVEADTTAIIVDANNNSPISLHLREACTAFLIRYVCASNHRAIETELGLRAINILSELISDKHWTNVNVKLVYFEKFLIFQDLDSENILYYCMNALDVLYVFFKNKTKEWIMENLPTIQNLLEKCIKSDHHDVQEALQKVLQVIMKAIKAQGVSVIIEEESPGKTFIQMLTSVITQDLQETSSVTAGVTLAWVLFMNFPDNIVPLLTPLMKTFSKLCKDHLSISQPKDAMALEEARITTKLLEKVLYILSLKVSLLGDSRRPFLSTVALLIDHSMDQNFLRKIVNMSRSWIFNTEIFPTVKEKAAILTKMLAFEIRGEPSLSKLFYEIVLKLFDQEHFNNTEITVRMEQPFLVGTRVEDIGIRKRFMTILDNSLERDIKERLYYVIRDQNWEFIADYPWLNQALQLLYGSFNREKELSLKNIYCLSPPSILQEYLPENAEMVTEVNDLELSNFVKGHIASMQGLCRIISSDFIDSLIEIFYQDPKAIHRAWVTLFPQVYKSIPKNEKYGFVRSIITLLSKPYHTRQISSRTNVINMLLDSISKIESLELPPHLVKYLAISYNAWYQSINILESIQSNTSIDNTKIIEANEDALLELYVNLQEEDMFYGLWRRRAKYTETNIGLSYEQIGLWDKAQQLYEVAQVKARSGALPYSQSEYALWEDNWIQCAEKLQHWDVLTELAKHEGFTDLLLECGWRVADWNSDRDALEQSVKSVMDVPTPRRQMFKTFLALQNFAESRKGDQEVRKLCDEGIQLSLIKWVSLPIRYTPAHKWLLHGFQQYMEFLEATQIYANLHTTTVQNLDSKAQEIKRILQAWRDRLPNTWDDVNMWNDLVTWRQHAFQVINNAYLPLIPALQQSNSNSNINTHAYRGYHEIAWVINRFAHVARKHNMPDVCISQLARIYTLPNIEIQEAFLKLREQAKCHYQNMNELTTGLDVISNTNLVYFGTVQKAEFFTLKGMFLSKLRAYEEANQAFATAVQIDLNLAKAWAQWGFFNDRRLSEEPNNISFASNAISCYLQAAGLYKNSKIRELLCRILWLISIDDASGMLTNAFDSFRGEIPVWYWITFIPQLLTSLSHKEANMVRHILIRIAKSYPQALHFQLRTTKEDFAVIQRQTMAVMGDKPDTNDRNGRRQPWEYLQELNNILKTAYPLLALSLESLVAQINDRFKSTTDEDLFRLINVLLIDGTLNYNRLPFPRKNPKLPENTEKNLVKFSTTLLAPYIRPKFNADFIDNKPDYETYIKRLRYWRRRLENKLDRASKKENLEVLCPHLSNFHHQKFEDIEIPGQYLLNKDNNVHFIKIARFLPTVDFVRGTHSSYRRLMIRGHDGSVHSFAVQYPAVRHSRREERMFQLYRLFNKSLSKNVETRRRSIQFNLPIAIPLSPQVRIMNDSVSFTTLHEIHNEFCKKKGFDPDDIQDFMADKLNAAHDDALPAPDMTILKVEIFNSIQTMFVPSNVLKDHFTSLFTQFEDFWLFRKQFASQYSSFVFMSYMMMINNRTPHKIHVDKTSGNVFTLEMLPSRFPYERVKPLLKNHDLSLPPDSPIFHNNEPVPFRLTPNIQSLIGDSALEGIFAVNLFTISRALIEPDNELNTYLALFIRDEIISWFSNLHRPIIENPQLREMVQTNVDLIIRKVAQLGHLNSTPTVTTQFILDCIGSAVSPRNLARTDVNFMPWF

T1: Sfp1-TAP fusion protein (S. cerevisiae) (UniProt P32432)
T1 sequence: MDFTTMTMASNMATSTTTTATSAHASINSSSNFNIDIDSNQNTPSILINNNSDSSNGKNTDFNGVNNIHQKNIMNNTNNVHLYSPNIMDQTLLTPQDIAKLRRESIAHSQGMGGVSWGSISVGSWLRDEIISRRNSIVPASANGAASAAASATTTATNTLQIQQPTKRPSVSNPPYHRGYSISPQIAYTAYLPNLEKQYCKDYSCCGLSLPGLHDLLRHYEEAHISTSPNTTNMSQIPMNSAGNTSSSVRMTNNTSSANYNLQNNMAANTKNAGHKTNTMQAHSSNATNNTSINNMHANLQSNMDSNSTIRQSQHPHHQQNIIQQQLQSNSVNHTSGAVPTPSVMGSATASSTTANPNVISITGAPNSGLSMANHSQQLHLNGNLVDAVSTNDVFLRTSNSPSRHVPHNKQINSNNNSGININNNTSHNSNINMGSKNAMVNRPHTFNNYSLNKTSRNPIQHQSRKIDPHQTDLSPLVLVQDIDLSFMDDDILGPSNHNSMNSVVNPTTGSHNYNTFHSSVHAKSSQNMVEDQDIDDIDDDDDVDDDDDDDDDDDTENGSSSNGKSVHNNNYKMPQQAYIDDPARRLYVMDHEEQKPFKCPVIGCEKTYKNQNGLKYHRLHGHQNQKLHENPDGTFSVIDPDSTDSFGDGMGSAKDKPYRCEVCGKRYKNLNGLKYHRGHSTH

B1: Arp4 (protein, UniProt P80428 1-489)
chain: MSNAALQVYGGDEVSAVVIDPGSYTTNIGYSGSDFPQSILPSVYGKYTADEGNKKIFSEQSIGIPRKDYELKPIIENGLVIDWDTAQEQWQWALQNELYLNSNSGIPALLTEPVWNSTENRKKSLEVLLEGMQFEACYLAPTSTCVSFAAGRPNCLVVDIGHDTCSVSPIVDGMTLSKSTRRNFIAGKFINHLIKKALEPKEIIPLFAIKQRKPEFIKKTFDYEVDKSLYDYANNRGFFQECKETLCHICPTKTLEETKTELSSTAKRSIESPWNEEIVFDNETRYGFAEELFLPKEDDIPANWPRSNSGVVKTWRNDYVPLKRTKPSGVNKSDKKVTPTEEKEQEAVSKSTSPAANSADTPNETGKRPLEEEKPPKENNELIGLADLVYSSIMSSDVDLRATLAHNVVLTGGTSSIPGLSDRLMTELNKILPSLKFRILTTGHTIERQYQSWLGGSILTSLGTFHQLWVGKKEYEEVGVERLLNDRFR
B2: Eaf1 (protein, UniProt Q06337 1-982)
chain: MSSRPSSAVPNSASLSEDQSSDRSKFPKADDLIDERDRKLTELYCVSRLNQLLELTDENKLRKEIDAFLKKNDIRRGIRFDEASLPKLLHTAATPITKKKLKDVNLINVPNQRLSDSKMSRELPENSENVSVKSESHFVPSHDNSIRENMMDSLRPAEKTGGMWNKRPLESTMGGEEERHEKRQKMQSQSLESSNNSEMASLPISPRPPVPNALAHYTYYENIEYPPADPTEVQPAVKFKDPLIKNIMAKEIDTSDHYNENNVDALETVFLLMNDYIPSKIPQALPLAELKYMSQTLPLINLIPRAHKALTTNIINNALNEARITVVGSRIEELRRLGLWSLRQPKRFIDPWKQHNTHQNILLEEAKWMQADFKEGHKYKVAICTAMAQAIKDYWTYGEICCVKRKTLLPGKENKLSDDGRISEKSGRPSDTSRNDSDISIAGKDDIGIIANVDDITEKESAAANDNDENGKNEAGAKSDFDFADGLLSQEGAHDQIISSIDTKLLLKKPSSSSEVVLIQHEVAASSALIETEESKKELAPPFKLSIFVDELNTFEKTLIQDLPLYNGINEERPKKDDSLPFIPISKSVVSLDDNGFYKLLERQLIDEEPSISQLSKRRGMFYGNRRNHYLRPPAVPSLRYLQNRTPTIWLSEDDQELVKNINTYGYNWELISAHMTHRLTYSYLSNIERRTPWQCFERFVQLNERFNFSDLKGPRAHSAQQWLIEAHKFQQRQNRRISPLGVNTESIQRGHRRLRWASMFEAIRKCMKKRENTPRPNPTQPRKPLDCKNMKVPTPAEMSLLKAQRDEALRRDIQLRRTVKNRLQQRQQQSQQAHSSRAQSPIPSNGKSSSNLARNGQASAPRPNQKQYTEQDIIESYSRKLLEQKPDIGPEMALKAAKNYYRTLREQQQQLKQHQIQQQRQQLQEESSHVQQLQQLQPGSQAPPPKSSPSQSSLSNISNINSAPRIKSPTPQEILQRFQKQ
B3: Esa1 (enzyme, UniProt Q08649 1-445)
chain: MSHDGKEEPGIAKKINSVDDIIIKCQCWVQKNDEERLAEILSINTRKAPPKFYVHYVNYNKRLDEWITTDRINLDKEVLYPKLKATDEDNKKQKKKKATNTSETPQDSLQDGVDGFSRENTDVMDLDNLNVQGIKDENISHEDEIKKLRTSGSMTQNPHEVARVRNLNRIIMGKYEIEPWYFSPYPIELTDEDFIYIDDFTLQYFGSKKQYERYRKKCTLRHPPGNEIYRDDYVSFFEIDGRKQRTWCRNLCLLSKLFLDHKTLYYDVDPFLFYCMTRRDELGHHLVGYFSKEKESADGYNVACILTLPQYQRMGYGKLLIEFSYELSKKENKVGSPEKPLSDLGLLSYRAYWSDTLITLLVEHQKEITIDEISSMTSMTTTDILHTAKTLNILRYYKGQHIIFLNEDILDRYNRLKAKKRRTIDPNRLIWKPPVFTASQLRFAW

Each molecule was assayed against T1, Sfp1-TAP fusion protein (S. cerevisiae) (assay: co-IP).

binding, binds:
Tra1 (from UniProt P38811 1-3744), B1, B2, B3
